Results: US20060135765A1, “Antineoplastic ether lipid compounds” (priority 2003, published 2006)
At least one structure is not confirmed: it was looked up by name or label, or the drawing left a doubt.

Tests used:
[1] = test system: platelets in dog whole blood; experiment: Platelet aggregation in dog whole blood (whole blood aggregometer); conditions: overall grade
WI38 = experiment: In vitro growth inhibition (SRB), WI-38 normal fibroblasts; format: cell-based, human; conditions: WI38 normal cell line; 3 days
Source text: III. In Vitro Growth Inhibition (GI50) A. Cell line maintenance The following cell lines were selected from the cell bank for screening and GI50 studies: MCF-7: human breast tumor, MCF-7/ADR: MCF-7 adriamycin resistant subline, HT-29: human colon carcinoma, A-549: human non-small cell lung cancer, NIH-3T3: mouse Swiss embryo fibroblast and WI-38: human lung fibroblast, SKMEL-28: human melanoma, Lewis Lung: mouse lung carcinoma, DU-145: prostate carcinoma, B16F10: mouse melanoma, L1210: murine lymphocytic leukemia, P-388: murine leukemia, U-937: human histolytic lymphoma. […]
The test compounds were made in-house and the compounds were dissolved PBS or saline at a stock concentration of approximately 20 mM, which is 400 times the desired final maximum test concentration. […] After 3 days of incubation, cell growth was determined.
The SRB assay was performed as described by Monks, A., Scudiero, D., Skehan, P., Shoemaker, R., Paull, K., Vistica, D., Hose, C., Langley, J., Cronise, P., and Vaigro-Wolff, A. Feasibility of a high-flux anticancer drug screen using a diverse panel of cultured human tumor cell lines. […] Bound SRB was solubilized with Tris buffer (10 mM), and the ODs were read using an automated plate reader (Bio-Rad, Model 3550-UV) at 490 nm. Background values were subtracted from the test data, and the data was calculated as a % of control. […]

CCCCCCCCCCCCCCCCCCOCC(CCP(=O)([O-])OCCC[N+](C)(C)C)OC [2(S), 3′-Trimethylaminopropyl-1-O-octadecyl-2-O-methylbutane-4-phospbonate]
Platelet aggregation [1]: −
GI50 (WI38): 5.4 µM
